These are yes or no findings as the source states them, for the method shown. Some entries that bind do so weakly or less than the wild type. Sequences can lack the tags named with a protein.
Tests used:
Experiment in all cases: ectopic mistargeting to mitochondria (Tom20-GBP); protein 1 tagged with mEGFP or mECitrine tethered to mitochondria by Tom20-GBP in live S. pombe cells; recruitment of tdTomato/mCherry/RFP-tagged protein 2 seen by confocal microscopy; Ync13 with Sec1 also tested in rng10Δ cells
[1] = target: T1, Rga7-FBD-mEGFP (Schizosaccharomyces pombe) (UniProt O94466)
T1 sequence: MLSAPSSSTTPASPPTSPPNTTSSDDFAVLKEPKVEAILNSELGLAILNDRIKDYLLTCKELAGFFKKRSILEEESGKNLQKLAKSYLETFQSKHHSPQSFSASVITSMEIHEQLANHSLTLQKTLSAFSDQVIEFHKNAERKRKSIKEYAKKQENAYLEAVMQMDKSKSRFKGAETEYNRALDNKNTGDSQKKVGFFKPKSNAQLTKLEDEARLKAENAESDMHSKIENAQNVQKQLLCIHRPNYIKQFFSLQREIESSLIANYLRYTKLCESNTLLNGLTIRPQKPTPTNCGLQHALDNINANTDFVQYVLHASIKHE

[2] = target: T2, Rng10-(1-200)-mEGFP (Schizosaccharomyces pombe) (UniProt Q9P6L9)
T2 sequence: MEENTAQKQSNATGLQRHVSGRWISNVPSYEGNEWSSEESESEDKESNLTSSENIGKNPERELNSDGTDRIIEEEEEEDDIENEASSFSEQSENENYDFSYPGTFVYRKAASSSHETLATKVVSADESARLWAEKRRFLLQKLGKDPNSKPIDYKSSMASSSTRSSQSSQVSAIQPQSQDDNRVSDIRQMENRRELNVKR

[3] = target: T3, Rga7-mEGFP (Schizosaccharomyces pombe) (UniProt O94466)
T3 sequence: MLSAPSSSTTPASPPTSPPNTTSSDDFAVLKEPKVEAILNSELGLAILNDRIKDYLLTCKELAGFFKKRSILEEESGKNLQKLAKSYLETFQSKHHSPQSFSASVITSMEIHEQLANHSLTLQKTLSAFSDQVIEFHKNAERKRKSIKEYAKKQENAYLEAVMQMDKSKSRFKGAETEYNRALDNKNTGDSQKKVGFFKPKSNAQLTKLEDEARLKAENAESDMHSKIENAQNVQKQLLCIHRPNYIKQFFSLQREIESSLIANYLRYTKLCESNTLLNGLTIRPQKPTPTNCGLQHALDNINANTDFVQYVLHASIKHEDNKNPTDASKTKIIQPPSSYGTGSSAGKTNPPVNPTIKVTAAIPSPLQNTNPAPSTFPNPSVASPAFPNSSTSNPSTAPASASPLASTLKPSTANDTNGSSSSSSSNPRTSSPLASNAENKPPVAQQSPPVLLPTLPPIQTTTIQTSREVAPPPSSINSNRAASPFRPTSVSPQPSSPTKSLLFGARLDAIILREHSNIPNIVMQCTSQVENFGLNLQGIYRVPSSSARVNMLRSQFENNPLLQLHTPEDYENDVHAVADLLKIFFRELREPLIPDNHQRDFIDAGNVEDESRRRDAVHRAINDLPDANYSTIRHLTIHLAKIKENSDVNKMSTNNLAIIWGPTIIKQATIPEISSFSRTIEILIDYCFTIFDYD

B1: Ync13-tdTomato (protein, UniProt O13683 1-1237)
chain: MNCRRKPLPLHSNEVQAAESISKDELYSWTLKNVLILFLVQYRASTPSALQTSSFSTPVEKKTNGAFSGSLFSAKEKKDNPKYPKDFIKYLSLALESISMGKEPEYQDQLIRGCFAAFYNNINKSHISKQLKDSRKIEDMFLIFASSVSSELTKRLGTAYDSNLADRITASFIELCKRVTLKGQLASPSSEFVSHLDMYHSKLLNKSEILSTKRVNRGQDQFDLSSFPLLKVFSSVFKVAYSKALLDAEKLFPSIDEAAIAEDIGILIEDLESDACKFSHSVVDFSNYKSYSTWKARELQTLEQHRKIMLSLIPLSSSPNHPIQPIGFPASRKTPTYVPPIARPYFRQLLSLCLEYRLQVTDPVEVKQINTFIRECSIYWRILPSTRCALSMDFAREHLQKGLITSADVLTHFGELHKSLKEWEITYWPKIDVSIFSSALFGIRNALAQLLKKSLLDLLHEKKADFHRWLNIMSICVEDGKVINQDLSPKSEISSVALALQEHCKVIFDEEFDLSKLPSSNFLDEIILASNRISVRIKFLERNCSECIYGVLSLPQIFINIVLPNYIRAALVVAKEYLREKANADINDLTKDMLEIYSDLKQMIHVLQEYHNEEYRIGSFEGFFQPFIDSWLDNVEASAEQWFLRSLEKDNFDENSSEGQYSSSIVDLFHAFHQAFRTLEGFEWEDDLANARFFTRFFRVIYIVLSKYTQWTTQKFFEEANKQDDTSEVQNDNSSSWFSKARNILSGSNEVLPFRFSPTMCILLNNIHFAMHAYEELEQKIDLQRLIEALDVAESTKRHKISATNYLYTIKVVRGEGLHPDGAGKIRTSYIVLTDNKGRRIGKTRPIHSMNPRWDDTFEVKTKDALMITANLWSKGKFNDHEIFGRSSFTLSPKIYGDYLPREEWFDLNPHGELLLRIEMEGEREHIGFYVGRTYHDLERAQREMIKFIVNKMEPVINQNLSTATLKKLLSANTWMDLDKTMTSVTSLLNRTGFSSKSSENVKKEGELTDVQIEAAIYELLDYFDLNFSIIAKHLTKDVFVTVMSYVWDEVVCTTEELLLPPVSVKPINRKPLSPAQMAIVYRWLQFLKDYFYANGEGVKLPVLETDHYKELLRVQEYYDKPTDFLLQECDKIASQLYLSSRMVNNEPVESLPRHSRIKFANKEIYRSGTIRKVHIQTNESELERNERIILRILRMRADSKRFLSKHFQRKGRLLMADAMRNGYVMPLGHLKKLDSR
B1 was tested. Which binding [1] did it give?
Its binding is “binds”.

What about the binding [2] of the same binder?
The binding was “no binding”.

What about the binding [3] of the same binder?
Its binding is “binds”.

Source: article PMC12574955, “The Ync13–Rga7–Rng10 complex selectively coordinates secretory vesicle trafficking and secondary septum formation during cytokinesis” (PLOS Biology, 2025)
